Reference: patent US20260209376A1
Substitutions are numbered along the chain they refer to. No constants are given. Whether binding was seen depends on the method and setting. Some results given as binding are weak or reduced against the parent protein; the word gives no strength.

B1: H6L9 (antibody, human IgG1, V domains shown)
VH: EVQLVQSGAEVKKPGESLKISCKGSGYSFTGYTMNWVRQMPGKGLEWMGRINPHNGGTDYNQKFKDQVTISADKSISTAYLQWSSLKASDTAMYYCARGYYYYSLDYWGQGTLVTVSS
VL: EIVLTQSPATLSLSPGERATLSCSASSSIRYIHWYQQKPGQAPRRWIYDTSNLASGTPARFSGSGSGTDFTLTISSLEPEDFAVYYCHQRNSYPWTFGQGTKVEIK
B2: H8L9 (antibody, human IgG1, V domains shown)
VH: QVQLVESGGGVVQPGRSLRLSCAASGYSFTGYTMNWVRQAPGNGLEWVARINPHNGGTDYNQKFKDRFTISRDNSKNTLYLQMNSLRAEDTAVYYCARGYYYYSLDYWGQGTTVTVSS
VL: B1 VL
B3: H8L10 (antibody, human IgG1, V domains shown)
VH: B2 VH
VL: EIVLTQSPDFQSVTPKEKVTITCSASSSIRYIHWYQQRPDQSPKRWIYDTSNLASGVPSRFSGSGSGTDFTLTINSLEAEDAATYYCHQRNSYPWTFGQGTKVEIK
B4: H6L7 (antibody, human IgG1, V domains shown)
VH: B1 VH
VL: B1 VL with D69S, F70Y, T71S
B5: H6L5 (antibody, human IgG1, V domains shown)
VH: B1 VH
VL: B1 VL with D69S, F70Y, T71S, H88Q
B6: H6L6 (antibody, human IgG1, V domains shown)
VH: B1 VH
VL: B3 VL with D69S, F70Y, T71S, H88Q
B7: H6L8 (antibody, human IgG1, V domains shown)
VH: B1 VH
VL: B3 VL with D69S, F70Y, T71S
B8: H6L10 (antibody, human IgG1, V domains shown)
VH: B1 VH
VL: B3 VL
B9: H6L11 (antibody, human IgG1, V domains shown)
VH: B1 VH
VL: B1 VL with R45L, W46L, D69S, F70Y, T71S
B10: H6L12 (antibody, human IgG1, V domains shown)
VH: B1 VH
VL: B3 VL with R45L, W46L, D69S, F70Y, T71S
B11: H8L5 (antibody, human IgG1, V domains shown)
VH: B2 VH
VL: B1 VL with D69S, F70Y, T71S, H88Q
B12: H8L6 (antibody, human IgG1, V domains shown)
VH: B2 VH
VL: B3 VL with D69S, F70Y, T71S, H88Q
B13: H8L7 (antibody, human IgG1, V domains shown)
VH: B2 VH
VL: B1 VL with D69S, F70Y, T71S
B14: H8L8 (antibody, human IgG1, V domains shown)
VH: B2 VH
VL: B3 VL with D69S, F70Y, T71S
B15: ch128.1 (antibody, human IgG1, V domains shown)
VH: EVQLQQSGPELVKPGASMKISCKASGYSFTGYTMNWVKQSHGENLEWIGRINPHNGGTDYNQKFKDKAPLTVDKSSNTAYMELLSLTSGDSAVYYCARGYYYYSLDYWGQGTSVTVSS
VL: QIVLTQSPAIMSVSPGEKVTMTCSASSSIRYIHWYQQRPGTSPKRWIYDTSNLASGVPARFSGSGSGTSYSLTISSMEAEDAATYYCHQRNSYPWTFGGGTRLEIR
B16: H6 Chim (antibody, human IgG1, V domains shown)
VH: B1 VH
VL: B15 VL
B17: H7 Chim (antibody, human IgG1, V domains shown)
VH: QVQLVQSGAEVKKPGSSVKVSCKASGYSFTGYTMNWVRQAPGQGLEWMGRINPHNGGTDYNQKFKDRVTITADKSTSTAYMELSSLRSEDTAVYYCARGYYYYSLDYWGQGTLVTVSS
VL: B15 VL
B18: H8 Chim (antibody, human IgG1, V domains shown)
VH: B2 VH
VL: B15 VL

What follows are binders tested against TfR1 (antigen; form in the assay not stated) (human) (UniProt P02786) (assay: ELISA and/or flow cytometry).

binding, binds:
B1, B2, B3, B4, B5, B6, B7, B8, B9, B10, B11, B12, B13, B14

Each binder was assayed against cynomolgus monkey (Macaca fascicularis) soluble TfR1 (sCD71) (cynomolgus monkey (Macaca fascicularis)) (assay: ELISA, plate coated with soluble cynomolgus monkey TfR1 (sCD71)).

binding, binds:
B1, B2, B3, B15, B4

These binders were tested against TfR1 (antigen; form in the assay not stated) (human) (UniProt P02786) (assay: assay not named in the sentence (ELISA and flow cytometry per paragraph 218)).

binding, binds:
B16, B17, B18

What follows are binders tested against cynomolgus monkey (Macaca fascicularis) soluble TfR1 (sCD71) (cynomolgus monkey (Macaca fascicularis)) (assay: ELISA, plate coated with soluble cynomolgus monkey TfR1 (Sino Biological), 2-fold antibody dilutions, AP anti-human kappa detection, A405).

binding, binds:
B1, B2, B3, B15, B4
